Structures can show the parent of a compound that is named as a salt. The list shows a part of the results. The calls rarely recur for the same compound in another form.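 Kinases were expressed as nanoluciferase fusions in K562 cells and luminescence was read every 4 h between 2 and 18 h as percent of control, DMSO set to 100% and a positive control to 0%. A time point counts as decreased when the signal drops significantly (2 sigma). The hit call is the authors' own, does not follow from the count of time points alone, and its rule is not shown.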
Experiments:
Assay in all cases: kinase-Nluc reporter destabilization hit call (1 = scored as downregulated) (binary); higher = compound decreases kinase abundance
Settings in all cases: K562; 2-18 h
[1] = target: ABL1 (UniProt P00519)
[2] = target: AKT1 (UniProt P31749)
[3] = target: ALK (UniProt Q9UM73)
[4] = target: ARAF (UniProt P10398)
[5] = target: AURKA (UniProt O14965)
[6] = target: AURKB (UniProt Q96GD4)
[7] = target: AURKC (UniProt Q9UQB9)
[8] = target: BLK (UniProt P51451)
[9] = target: BMX (UniProt P51813)
[10] = target: BRAF (UniProt P15056)
[11] = test system: BRAF_V600E
[12] = target: BTK (UniProt Q06187)
[13] = target: CAMK2A (UniProt Q9UQM7)
[14] = target: CAMK2G (UniProt Q13555)
[15] = target: CDK10 (UniProt Q15131)
[16] = target: CDK2 (UniProt P24941)
[17] = target: CDK3 (UniProt Q00526)
[18] = target: CDK4 (UniProt P11802)
[19] = target: CDK5 (UniProt Q00535)
[20] = target: CDK6 (UniProt Q00534)

By UniProt entry, the sequences of proteins in these tests, tags left out. Where a name states a change or a piece, a line headed by the entry shows the natural chain unless it says otherwise.
UniProt Q9UM73: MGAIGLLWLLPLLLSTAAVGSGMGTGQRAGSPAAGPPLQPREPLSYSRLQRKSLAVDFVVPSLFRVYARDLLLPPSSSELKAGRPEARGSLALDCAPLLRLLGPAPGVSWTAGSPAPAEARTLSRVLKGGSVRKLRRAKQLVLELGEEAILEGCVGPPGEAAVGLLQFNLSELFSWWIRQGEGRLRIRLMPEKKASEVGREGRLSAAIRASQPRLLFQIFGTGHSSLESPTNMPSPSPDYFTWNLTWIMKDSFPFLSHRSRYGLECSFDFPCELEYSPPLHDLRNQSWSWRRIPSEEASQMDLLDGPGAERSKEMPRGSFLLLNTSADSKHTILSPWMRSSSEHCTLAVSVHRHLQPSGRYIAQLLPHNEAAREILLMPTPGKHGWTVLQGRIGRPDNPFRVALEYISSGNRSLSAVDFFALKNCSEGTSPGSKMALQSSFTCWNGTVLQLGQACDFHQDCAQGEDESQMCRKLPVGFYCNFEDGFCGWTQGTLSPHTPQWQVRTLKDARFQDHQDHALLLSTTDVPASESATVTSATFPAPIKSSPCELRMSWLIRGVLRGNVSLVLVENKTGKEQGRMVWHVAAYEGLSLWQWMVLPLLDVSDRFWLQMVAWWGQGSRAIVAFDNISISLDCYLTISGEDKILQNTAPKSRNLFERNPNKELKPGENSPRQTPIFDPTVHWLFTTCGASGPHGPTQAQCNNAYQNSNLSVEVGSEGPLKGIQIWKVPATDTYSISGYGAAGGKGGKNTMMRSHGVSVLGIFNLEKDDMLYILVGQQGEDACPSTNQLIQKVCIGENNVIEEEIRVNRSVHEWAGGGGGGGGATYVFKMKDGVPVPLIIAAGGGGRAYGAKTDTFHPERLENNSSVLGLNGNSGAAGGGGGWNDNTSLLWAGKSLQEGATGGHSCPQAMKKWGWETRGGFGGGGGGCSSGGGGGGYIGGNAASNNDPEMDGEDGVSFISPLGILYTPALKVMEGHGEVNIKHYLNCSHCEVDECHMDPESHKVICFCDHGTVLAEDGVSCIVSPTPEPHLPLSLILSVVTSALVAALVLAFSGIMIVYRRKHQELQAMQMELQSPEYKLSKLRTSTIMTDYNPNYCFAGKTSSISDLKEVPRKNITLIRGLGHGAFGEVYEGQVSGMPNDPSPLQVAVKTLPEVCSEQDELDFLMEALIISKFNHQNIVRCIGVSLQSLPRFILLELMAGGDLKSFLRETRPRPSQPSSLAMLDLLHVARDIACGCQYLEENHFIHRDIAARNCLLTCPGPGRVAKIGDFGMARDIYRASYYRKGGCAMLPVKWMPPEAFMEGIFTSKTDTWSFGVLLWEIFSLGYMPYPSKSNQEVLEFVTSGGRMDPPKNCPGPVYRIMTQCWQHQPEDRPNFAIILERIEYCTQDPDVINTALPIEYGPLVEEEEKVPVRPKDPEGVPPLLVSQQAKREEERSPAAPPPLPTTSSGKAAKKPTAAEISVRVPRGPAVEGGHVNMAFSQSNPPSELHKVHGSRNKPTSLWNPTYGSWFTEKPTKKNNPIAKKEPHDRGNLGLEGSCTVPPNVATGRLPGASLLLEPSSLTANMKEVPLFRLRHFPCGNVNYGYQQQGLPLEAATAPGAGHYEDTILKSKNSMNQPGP
UniProt P10398: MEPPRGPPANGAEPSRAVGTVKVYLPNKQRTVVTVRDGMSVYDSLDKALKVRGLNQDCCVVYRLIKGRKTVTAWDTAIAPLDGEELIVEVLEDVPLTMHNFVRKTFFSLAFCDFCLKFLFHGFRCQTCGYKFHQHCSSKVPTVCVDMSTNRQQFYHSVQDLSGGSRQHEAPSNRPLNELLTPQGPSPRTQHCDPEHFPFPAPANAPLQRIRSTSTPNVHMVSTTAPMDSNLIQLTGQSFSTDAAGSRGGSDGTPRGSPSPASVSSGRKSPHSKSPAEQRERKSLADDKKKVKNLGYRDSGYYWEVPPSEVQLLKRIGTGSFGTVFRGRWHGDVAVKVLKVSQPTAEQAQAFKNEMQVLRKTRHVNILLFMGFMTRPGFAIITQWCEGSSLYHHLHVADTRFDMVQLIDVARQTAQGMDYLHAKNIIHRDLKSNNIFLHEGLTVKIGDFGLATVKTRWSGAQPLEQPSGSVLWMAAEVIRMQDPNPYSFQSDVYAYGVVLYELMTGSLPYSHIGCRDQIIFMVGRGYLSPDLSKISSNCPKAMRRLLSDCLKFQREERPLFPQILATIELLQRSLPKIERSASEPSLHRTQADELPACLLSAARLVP
UniProt O14965: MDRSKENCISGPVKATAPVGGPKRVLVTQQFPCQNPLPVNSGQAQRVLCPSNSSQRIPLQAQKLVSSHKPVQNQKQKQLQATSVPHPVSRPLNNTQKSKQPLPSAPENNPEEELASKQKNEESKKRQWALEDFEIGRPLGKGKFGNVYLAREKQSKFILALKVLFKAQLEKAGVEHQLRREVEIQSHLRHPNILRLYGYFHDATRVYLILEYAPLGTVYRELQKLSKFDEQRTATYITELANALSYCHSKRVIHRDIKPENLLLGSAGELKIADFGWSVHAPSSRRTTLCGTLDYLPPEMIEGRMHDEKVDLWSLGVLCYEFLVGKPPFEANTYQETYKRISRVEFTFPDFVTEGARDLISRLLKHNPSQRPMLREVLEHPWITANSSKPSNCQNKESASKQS
UniProt Q9UQB9: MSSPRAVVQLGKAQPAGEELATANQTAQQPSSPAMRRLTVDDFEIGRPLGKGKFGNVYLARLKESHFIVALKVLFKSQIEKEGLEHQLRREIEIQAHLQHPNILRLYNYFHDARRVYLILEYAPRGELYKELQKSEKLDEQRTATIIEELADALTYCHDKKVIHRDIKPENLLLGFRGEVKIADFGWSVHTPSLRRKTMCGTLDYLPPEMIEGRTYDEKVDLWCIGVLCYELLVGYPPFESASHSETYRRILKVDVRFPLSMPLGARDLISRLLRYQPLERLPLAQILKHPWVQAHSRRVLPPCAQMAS
UniProt P51813: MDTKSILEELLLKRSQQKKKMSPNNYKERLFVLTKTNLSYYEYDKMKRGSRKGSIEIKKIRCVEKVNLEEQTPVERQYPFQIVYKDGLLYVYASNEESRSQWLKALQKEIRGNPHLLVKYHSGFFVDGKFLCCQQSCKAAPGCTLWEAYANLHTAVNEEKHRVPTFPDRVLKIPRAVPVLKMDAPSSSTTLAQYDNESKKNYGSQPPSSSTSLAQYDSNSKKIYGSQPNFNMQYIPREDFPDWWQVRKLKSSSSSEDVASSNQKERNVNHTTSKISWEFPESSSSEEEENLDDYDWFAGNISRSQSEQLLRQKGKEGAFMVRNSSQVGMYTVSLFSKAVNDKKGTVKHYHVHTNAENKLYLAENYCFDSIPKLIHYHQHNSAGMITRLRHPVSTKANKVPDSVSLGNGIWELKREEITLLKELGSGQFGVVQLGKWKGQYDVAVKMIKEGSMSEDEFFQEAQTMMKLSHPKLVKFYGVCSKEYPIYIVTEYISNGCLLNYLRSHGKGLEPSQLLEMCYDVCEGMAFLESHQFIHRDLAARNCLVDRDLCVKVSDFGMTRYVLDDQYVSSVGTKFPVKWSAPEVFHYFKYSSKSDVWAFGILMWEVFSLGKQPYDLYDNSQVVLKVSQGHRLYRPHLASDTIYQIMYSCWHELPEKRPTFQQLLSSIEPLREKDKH
UniProt P15056, whole entry, looked up: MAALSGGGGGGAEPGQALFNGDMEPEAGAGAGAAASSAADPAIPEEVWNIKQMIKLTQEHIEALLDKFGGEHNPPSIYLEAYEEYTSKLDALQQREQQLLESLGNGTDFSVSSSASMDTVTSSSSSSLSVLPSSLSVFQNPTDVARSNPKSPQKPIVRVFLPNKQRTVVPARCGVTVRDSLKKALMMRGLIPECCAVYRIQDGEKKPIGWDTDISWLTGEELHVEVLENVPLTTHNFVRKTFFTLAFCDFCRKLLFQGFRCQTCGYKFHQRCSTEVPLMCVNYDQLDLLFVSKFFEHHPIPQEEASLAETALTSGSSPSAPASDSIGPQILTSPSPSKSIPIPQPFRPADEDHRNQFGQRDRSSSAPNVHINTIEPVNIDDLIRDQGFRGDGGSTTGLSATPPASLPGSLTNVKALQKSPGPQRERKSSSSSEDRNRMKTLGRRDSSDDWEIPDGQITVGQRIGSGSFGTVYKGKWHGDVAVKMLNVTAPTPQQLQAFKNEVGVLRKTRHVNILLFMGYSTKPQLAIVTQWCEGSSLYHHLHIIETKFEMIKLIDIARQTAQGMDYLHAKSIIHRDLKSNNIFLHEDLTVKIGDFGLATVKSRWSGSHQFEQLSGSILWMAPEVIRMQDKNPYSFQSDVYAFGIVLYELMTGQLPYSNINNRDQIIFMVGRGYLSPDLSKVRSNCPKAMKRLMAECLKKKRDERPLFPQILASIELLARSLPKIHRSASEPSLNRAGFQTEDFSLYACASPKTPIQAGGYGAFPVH
UniProt Q06187: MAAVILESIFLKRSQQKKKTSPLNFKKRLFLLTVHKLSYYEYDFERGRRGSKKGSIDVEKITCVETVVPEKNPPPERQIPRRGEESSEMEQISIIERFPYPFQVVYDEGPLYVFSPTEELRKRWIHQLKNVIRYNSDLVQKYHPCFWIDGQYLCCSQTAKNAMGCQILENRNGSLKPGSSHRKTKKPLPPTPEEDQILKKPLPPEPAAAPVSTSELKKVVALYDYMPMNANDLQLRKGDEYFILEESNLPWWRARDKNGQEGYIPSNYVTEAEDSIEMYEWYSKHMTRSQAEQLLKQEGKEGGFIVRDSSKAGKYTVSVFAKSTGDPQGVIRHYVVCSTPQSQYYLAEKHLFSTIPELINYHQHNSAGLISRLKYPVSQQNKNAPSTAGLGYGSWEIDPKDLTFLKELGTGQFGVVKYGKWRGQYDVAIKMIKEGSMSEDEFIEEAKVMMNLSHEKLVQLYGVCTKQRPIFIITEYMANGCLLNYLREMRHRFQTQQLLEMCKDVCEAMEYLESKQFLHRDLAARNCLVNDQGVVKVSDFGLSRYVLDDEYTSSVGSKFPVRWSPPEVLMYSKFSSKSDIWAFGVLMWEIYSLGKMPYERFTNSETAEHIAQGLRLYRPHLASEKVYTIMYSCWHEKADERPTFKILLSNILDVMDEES
UniProt Q9UQM7, whole entry: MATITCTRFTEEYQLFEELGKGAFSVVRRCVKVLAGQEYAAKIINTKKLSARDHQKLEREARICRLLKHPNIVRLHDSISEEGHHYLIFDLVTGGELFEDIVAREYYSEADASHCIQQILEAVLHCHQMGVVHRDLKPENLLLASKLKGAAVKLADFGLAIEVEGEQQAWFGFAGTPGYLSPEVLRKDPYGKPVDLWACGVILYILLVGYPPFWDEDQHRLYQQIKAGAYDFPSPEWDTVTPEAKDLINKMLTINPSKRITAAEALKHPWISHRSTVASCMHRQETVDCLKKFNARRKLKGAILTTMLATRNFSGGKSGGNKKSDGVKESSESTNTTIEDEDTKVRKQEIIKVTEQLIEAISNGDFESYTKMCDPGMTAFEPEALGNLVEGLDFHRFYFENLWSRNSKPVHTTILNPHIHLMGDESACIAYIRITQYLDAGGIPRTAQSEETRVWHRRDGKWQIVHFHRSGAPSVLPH
UniProt Q00526: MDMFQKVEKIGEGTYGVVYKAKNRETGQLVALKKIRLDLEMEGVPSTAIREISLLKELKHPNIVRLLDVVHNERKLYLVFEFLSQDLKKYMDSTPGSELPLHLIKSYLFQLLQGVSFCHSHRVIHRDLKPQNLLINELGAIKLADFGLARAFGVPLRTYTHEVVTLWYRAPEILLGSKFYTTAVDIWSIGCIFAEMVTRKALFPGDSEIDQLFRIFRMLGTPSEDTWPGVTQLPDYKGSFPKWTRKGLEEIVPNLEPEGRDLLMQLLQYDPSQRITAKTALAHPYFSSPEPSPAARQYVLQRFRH
UniProt P11802: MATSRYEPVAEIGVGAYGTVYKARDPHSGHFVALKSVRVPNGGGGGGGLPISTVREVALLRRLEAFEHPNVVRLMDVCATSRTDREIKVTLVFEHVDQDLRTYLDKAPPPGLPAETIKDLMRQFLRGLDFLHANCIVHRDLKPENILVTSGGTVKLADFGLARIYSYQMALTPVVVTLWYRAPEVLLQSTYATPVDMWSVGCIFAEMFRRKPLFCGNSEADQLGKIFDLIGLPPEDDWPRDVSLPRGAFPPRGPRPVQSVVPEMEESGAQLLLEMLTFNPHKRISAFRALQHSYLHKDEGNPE
UniProt Q00534, whole entry: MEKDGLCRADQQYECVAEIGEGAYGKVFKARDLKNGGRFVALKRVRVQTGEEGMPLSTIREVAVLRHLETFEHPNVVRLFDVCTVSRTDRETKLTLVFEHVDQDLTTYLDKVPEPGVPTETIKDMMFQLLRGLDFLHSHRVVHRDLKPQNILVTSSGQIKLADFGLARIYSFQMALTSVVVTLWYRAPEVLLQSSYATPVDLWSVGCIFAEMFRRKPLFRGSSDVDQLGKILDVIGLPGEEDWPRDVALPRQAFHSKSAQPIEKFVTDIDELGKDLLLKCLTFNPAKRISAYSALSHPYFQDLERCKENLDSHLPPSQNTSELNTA

Row | SMILES | kinase-Nluc reporter destabilization hit call [1] | kinase-Nluc reporter destabilization hit call [2] | kinase-Nluc reporter destabilization hit call [3] | kinase-Nluc reporter destabilization hit call [4] | kinase-Nluc reporter destabilization hit call [5] | kinase-Nluc reporter destabilization hit call [6] | kinase-Nluc reporter destabilization hit call [7] | kinase-Nluc reporter destabilization hit call [8] | kinase-Nluc reporter destabilization hit call [9] | kinase-Nluc reporter destabilization hit call [10] | kinase-Nluc reporter destabilization hit call [11] | kinase-Nluc reporter destabilization hit call [12] | kinase-Nluc reporter destabilization hit call [13] | kinase-Nluc reporter destabilization hit call [14] | kinase-Nluc reporter destabilization hit call [15] | kinase-Nluc reporter destabilization hit call [16] | kinase-Nluc reporter destabilization hit call [17] | kinase-Nluc reporter destabilization hit call [18] | kinase-Nluc reporter destabilization hit call [19] | kinase-Nluc reporter destabilization hit call [20]
1 | c1ccc(-c2nn3c(c2-c2ccnc4cc(OCCN5CCOCC5)ccc24)CCC3)nc1 (10 µM) | inactive: 0 | inactive: 0 | inactive: 0 | inactive: 0 | inactive: 0 | inactive: 0 | inactive: 0 | inactive: 0 | inactive: 0 | inactive: 0 | inactive: 0 | inactive: 0 | inactive: 0 | inactive: 0 | inactive: 0 | inactive: 0 | inactive: 0 | inactive: 0 | inactive: 0 | inactive: 0
2 | O=C1NC(=O)C(=Cc2ccc3c(c2)OCO3)S1 (10 µM) | inactive: 0 | inactive: 0 | inactive: 0 | inactive: 0 | inactive: 0 | inactive: 0 | inactive: 0 | inactive: 0 | inactive: 0 | inactive: 0 | inactive: 0 | inactive: 0 | inactive: 0 | inactive: 0 | inactive: 0 | inactive: 0 | inactive: 0 | inactive: 0 | inactive: 0 | inactive: 0
3 | O=[N+]([O-])c1ccc(Sc2cccc[n+]2[O-])c2nonc12 (2.5 µM) | inactive: 0 | inactive: 0 | inactive: 0 | inactive: 0 | inactive: 0 | inactive: 0 | inactive: 0 | inactive: 0 | inactive: 0 | inactive: 0 | inactive: 0 | inactive: 0 | inactive: 0 | inactive: 0 | inactive: 0 | inactive: 0 | inactive: 0 | inactive: 0 | inactive: 0 | inactive: 0
4 | CCN1C(=O)CNc2ncc(-c3ccc(-c4nc[nH]n4)nc3C)nc21 [CC-115 (hydrochloride)] (2.5 µM) | active: 1 | inactive: 0 | inactive: 0 | inactive: 0 | inactive: 0 | inactive: 0 | inactive: 0 | inactive: 0 | inactive: 0 | inactive: 0 | inactive: 0 | inactive: 0 | inactive: 0 | inactive: 0 | inactive: 0 | inactive: 0 | inactive: 0 | inactive: 0 | inactive: 0 | inactive: 0
5 | O=C1NC(=O)/C(=C/c2ccc(-c3ccc(F)cc3O)o2)S1 (10 µM) | inactive: 0 | inactive: 0 | inactive: 0 | inactive: 0 | inactive: 0 | inactive: 0 | inactive: 0 | inactive: 0 | inactive: 0 | inactive: 0 | inactive: 0 | inactive: 0 | inactive: 0 | inactive: 0 | inactive: 0 | inactive: 0 | inactive: 0 | inactive: 0 | inactive: 0 | inactive: 0
6 | Cc1cc(Nc2nc(N[C@@H](C)c3ncc(F)cn3)ncc2Cl)[nH]n1 (10 µM) | inactive: 0 | inactive: 0 | inactive: 0 | inactive: 0 | inactive: 0 | inactive: 0 | inactive: 0 | inactive: 0 | inactive: 0 | inactive: 0 | inactive: 0 | inactive: 0 | inactive: 0 | inactive: 0 | inactive: 0 | inactive: 0 | inactive: 0 | inactive: 0 | inactive: 0 | inactive: 0
7 | Fc1c(Br)cccc1Nc1ncnc2cc3c(cc12)OCCO3 (2.5 µM) | inactive: 0 | inactive: 0 | inactive: 0 | inactive: 0 | inactive: 0 | inactive: 0 | inactive: 0 | inactive: 0 | inactive: 0 | inactive: 0 | inactive: 0 | inactive: 0 | inactive: 0 | inactive: 0 | inactive: 0 | inactive: 0 | inactive: 0 | inactive: 0 | inactive: 0 | inactive: 0
8 | O=C(O)c1ccccc1Nc1cccc(C(F)(F)F)c1 [Flufenamic acid] (10 µM) | inactive: 0 | inactive: 0 | inactive: 0 | inactive: 0 | inactive: 0 | inactive: 0 | inactive: 0 | inactive: 0 | inactive: 0 | inactive: 0 | inactive: 0 | inactive: 0 | inactive: 0 | inactive: 0 | inactive: 0 | inactive: 0 | inactive: 0 | inactive: 0 | inactive: 0 | inactive: 0
9 | Nc1ncc(-c2ccc(C(=O)N3CCNCC3)cc2)nc1-c1ccc(C(F)(F)F)cc1 (10 µM) | inactive: 0 | inactive: 0 | inactive: 0 | inactive: 0 | inactive: 0 | inactive: 0 | inactive: 0 | inactive: 0 | inactive: 0 | inactive: 0 | inactive: 0 | inactive: 0 | inactive: 0 | inactive: 0 | inactive: 0 | inactive: 0 | inactive: 0 | inactive: 0 | inactive: 0 | inactive: 0
10 | CN1CCN(CCCNc2ncc(Cl)c(-c3cc4c(C(=O)NC5CC5)cccc4s3)n2)CC1 (10 µM) | inactive: 0 | inactive: 0 | inactive: 0 | inactive: 0 | inactive: 0 | inactive: 0 | inactive: 0 | inactive: 0 | inactive: 0 | inactive: 0 | inactive: 0 | inactive: 0 | inactive: 0 | inactive: 0 | inactive: 0 | inactive: 0 | inactive: 0 | inactive: 0 | inactive: 0 | inactive: 0
11 | C[C@@H]1COCCN1c1cc(=O)n2c(n1)N(Cc1cncc(Cl)c1)[C@H](C(F)(F)F)CC2 (10 µM) | inactive: 0 | inactive: 0 | inactive: 0 | inactive: 0 | inactive: 0 | inactive: 0 | inactive: 0 | inactive: 0 | inactive: 0 | inactive: 0 | inactive: 0 | inactive: 0 | inactive: 0 | inactive: 0 | inactive: 0 | inactive: 0 | inactive: 0 | inactive: 0 | inactive: 0 | inactive: 0
12 | COc1ccc(CN2C3CC2CN(c2ccc(-c4cc(OCC(C)(C)O)cn5ncc(C#N)c45)cn2)C3)cn1 [Selpercatinib] (10 µM) | inactive: 0 | inactive: 0 | inactive: 0 | inactive: 0 | inactive: 0 | inactive: 0 | inactive: 0 | inactive: 0 | inactive: 0 | inactive: 0 | inactive: 0 | inactive: 0 | inactive: 0 | inactive: 0 | inactive: 0 | inactive: 0 | inactive: 0 | inactive: 0 | inactive: 0 | active: 1
13 | O=C(CCCCCn1cc(Nc2ncc(Cl)c(Nc3ccc(Cl)cc3)n2)cn1)NO (2.5 µM) | inactive: 0 | inactive: 0 | inactive: 0 | inactive: 0 | inactive: 0 | inactive: 0 | inactive: 0 | inactive: 0 | inactive: 0 | inactive: 0 | inactive: 0 | inactive: 0 | inactive: 0 | inactive: 0 | inactive: 0 | inactive: 0 | inactive: 0 | inactive: 0 | inactive: 0 | inactive: 0
14 | Cc1ccc(-c2ccc3c(ccc4sc5c(c43)NC[C@@H](C)NC5=O)n2)cn1 (10 µM) | inactive: 0 | inactive: 0 | inactive: 0 | inactive: 0 | inactive: 0 | inactive: 0 | inactive: 0 | inactive: 0 | inactive: 0 | inactive: 0 | inactive: 0 | inactive: 0 | inactive: 0 | inactive: 0 | inactive: 0 | inactive: 0 | inactive: 0 | inactive: 0 | inactive: 0 | inactive: 0
15 | COC(=O)N[C@@H](C)CNc1nccc(-c2cn(C(C)C)nc2-c2cc(Cl)cc(NS(C)(=O)=O)c2F)n1 [Encorafenib] (10 µM) | inactive: 0 | inactive: 0 | inactive: 0 | inactive: 0 | inactive: 0 | inactive: 0 | inactive: 0 | inactive: 0 | inactive: 0 | inactive: 0 | inactive: 0 | inactive: 0 | inactive: 0 | inactive: 0 | inactive: 0 | inactive: 0 | inactive: 0 | inactive: 0 | inactive: 0 | inactive: 0
16 | O=C(Nc1cccc(-c2nncn2C2CC2)c1)c1cc(-n2cnc(C3CC3)c2)ccn1 (10 µM) | inactive: 0 | inactive: 0 | inactive: 0 | inactive: 0 | inactive: 0 | inactive: 0 | inactive: 0 | inactive: 0 | inactive: 0 | inactive: 0 | inactive: 0 | inactive: 0 | inactive: 0 | inactive: 0 | inactive: 0 | inactive: 0 | inactive: 0 | inactive: 0 | inactive: 0 | inactive: 0
17 | CCCCNC(=N)NC(=N)N [Buformin (hydrochloride)] (2.5 µM) | inactive: 0 | inactive: 0 | inactive: 0 | inactive: 0 | inactive: 0 | inactive: 0 | inactive: 0 | inactive: 0 | inactive: 0 | inactive: 0 | inactive: 0 | inactive: 0 | inactive: 0 | inactive: 0 | inactive: 0 | inactive: 0 | inactive: 0 | inactive: 0 | inactive: 0 | inactive: 0
18 | CCN(C)C(=O)c1ccc2c(C(=Nc3ccc(CN4CCCCC4)cc3)c3ccccc3)c(O)[nH]c2c1 (2.5 µM) | inactive: 0 | inactive: 0 | inactive: 0 | inactive: 0 | inactive: 0 | inactive: 0 | inactive: 0 | inactive: 0 | inactive: 0 | inactive: 0 | inactive: 0 | inactive: 0 | inactive: 0 | inactive: 0 | inactive: 0 | inactive: 0 | inactive: 0 | inactive: 0 | inactive: 0 | inactive: 0

Three compounds already listed, ordered by length of the SMILES, low to high:
Row | SMILES | kinase-Nluc reporter destabilization hit call [1] | kinase-Nluc reporter destabilization hit call [2] | kinase-Nluc reporter destabilization hit call [3] | kinase-Nluc reporter destabilization hit call [4] | kinase-Nluc reporter destabilization hit call [5] | kinase-Nluc reporter destabilization hit call [6] | kinase-Nluc reporter destabilization hit call [7] | kinase-Nluc reporter destabilization hit call [8] | kinase-Nluc reporter destabilization hit call [9] | kinase-Nluc reporter destabilization hit call [10] | kinase-Nluc reporter destabilization hit call [11] | kinase-Nluc reporter destabilization hit call [12] | kinase-Nluc reporter destabilization hit call [13] | kinase-Nluc reporter destabilization hit call [14] | kinase-Nluc reporter destabilization hit call [15] | kinase-Nluc reporter destabilization hit call [16] | kinase-Nluc reporter destabilization hit call [17] | kinase-Nluc reporter destabilization hit call [18] | kinase-Nluc reporter destabilization hit call [19] | kinase-Nluc reporter destabilization hit call [20]
17 | CCCCNC(=N)NC(=N)N [Buformin (hydrochloride)] (2.5 µM) | inactive: 0 | inactive: 0 | inactive: 0 | inactive: 0 | inactive: 0 | inactive: 0 | inactive: 0 | inactive: 0 | inactive: 0 | inactive: 0 | inactive: 0 | inactive: 0 | inactive: 0 | inactive: 0 | inactive: 0 | inactive: 0 | inactive: 0 | inactive: 0 | inactive: 0 | inactive: 0
9 | Nc1ncc(-c2ccc(C(=O)N3CCNCC3)cc2)nc1-c1ccc(C(F)(F)F)cc1 (10 µM) | inactive: 0 | inactive: 0 | inactive: 0 | inactive: 0 | inactive: 0 | inactive: 0 | inactive: 0 | inactive: 0 | inactive: 0 | inactive: 0 | inactive: 0 | inactive: 0 | inactive: 0 | inactive: 0 | inactive: 0 | inactive: 0 | inactive: 0 | inactive: 0 | inactive: 0 | inactive: 0
18 | CCN(C)C(=O)c1ccc2c(C(=Nc3ccc(CN4CCCCC4)cc3)c3ccccc3)c(O)[nH]c2c1 (2.5 µM) | inactive: 0 | inactive: 0 | inactive: 0 | inactive: 0 | inactive: 0 | inactive: 0 | inactive: 0 | inactive: 0 | inactive: 0 | inactive: 0 | inactive: 0 | inactive: 0 | inactive: 0 | inactive: 0 | inactive: 0 | inactive: 0 | inactive: 0 | inactive: 0 | inactive: 0 | inactive: 0

Source: the supplement of paper PMC12823440, “Inhibitors supercharge kinase turnover through native proteolytic circuits” (Nature, 2025)
